Assay [1] deals with T1, HA-Emerin deletion mutant D5 (human) (UniProt P50402).
T1 sequence: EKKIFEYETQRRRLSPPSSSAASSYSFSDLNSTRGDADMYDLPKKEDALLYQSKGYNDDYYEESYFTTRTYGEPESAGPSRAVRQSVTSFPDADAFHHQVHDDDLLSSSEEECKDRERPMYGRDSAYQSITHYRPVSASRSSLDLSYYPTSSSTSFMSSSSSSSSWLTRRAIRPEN
Nature of the assay: co-IP; HeLa cells co-transfected with HA-Emerin deletion mutants (6 ug) and Flag-STAT3 (6 ug) for 24 h; lysate immunoprecipitated with anti-HA overnight at 4 C, blotted with anti-Flag.

Chains of the proteins cited; added tags and fusions are not shown. Lines headed by an entry give the natural chain unless they say otherwise; changes in a name come on top. A line that says so, or that is headed by a name, gives the form on record, which may keep a tag or linker.
UniProt P40763: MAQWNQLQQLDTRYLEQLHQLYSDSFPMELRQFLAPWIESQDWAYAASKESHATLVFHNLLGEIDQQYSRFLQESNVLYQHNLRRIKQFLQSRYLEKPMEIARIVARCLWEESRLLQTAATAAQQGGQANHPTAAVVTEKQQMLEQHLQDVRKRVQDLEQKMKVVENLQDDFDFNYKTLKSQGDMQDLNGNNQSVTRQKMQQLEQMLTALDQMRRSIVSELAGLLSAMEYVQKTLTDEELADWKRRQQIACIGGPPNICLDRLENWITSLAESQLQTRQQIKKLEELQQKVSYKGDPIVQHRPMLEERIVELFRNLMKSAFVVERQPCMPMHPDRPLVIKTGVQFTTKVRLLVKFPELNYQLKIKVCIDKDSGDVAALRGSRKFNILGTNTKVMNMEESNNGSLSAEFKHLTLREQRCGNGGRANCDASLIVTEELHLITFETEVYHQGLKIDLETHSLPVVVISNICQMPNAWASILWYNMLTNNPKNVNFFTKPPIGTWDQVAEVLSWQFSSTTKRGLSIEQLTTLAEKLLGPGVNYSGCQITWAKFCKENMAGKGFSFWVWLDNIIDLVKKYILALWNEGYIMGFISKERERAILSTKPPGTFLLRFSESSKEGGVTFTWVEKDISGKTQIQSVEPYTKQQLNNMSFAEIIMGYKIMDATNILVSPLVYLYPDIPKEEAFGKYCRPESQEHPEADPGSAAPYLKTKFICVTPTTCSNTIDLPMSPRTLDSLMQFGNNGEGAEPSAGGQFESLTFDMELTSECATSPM
Flag-STAT3 (P40763-2, form named): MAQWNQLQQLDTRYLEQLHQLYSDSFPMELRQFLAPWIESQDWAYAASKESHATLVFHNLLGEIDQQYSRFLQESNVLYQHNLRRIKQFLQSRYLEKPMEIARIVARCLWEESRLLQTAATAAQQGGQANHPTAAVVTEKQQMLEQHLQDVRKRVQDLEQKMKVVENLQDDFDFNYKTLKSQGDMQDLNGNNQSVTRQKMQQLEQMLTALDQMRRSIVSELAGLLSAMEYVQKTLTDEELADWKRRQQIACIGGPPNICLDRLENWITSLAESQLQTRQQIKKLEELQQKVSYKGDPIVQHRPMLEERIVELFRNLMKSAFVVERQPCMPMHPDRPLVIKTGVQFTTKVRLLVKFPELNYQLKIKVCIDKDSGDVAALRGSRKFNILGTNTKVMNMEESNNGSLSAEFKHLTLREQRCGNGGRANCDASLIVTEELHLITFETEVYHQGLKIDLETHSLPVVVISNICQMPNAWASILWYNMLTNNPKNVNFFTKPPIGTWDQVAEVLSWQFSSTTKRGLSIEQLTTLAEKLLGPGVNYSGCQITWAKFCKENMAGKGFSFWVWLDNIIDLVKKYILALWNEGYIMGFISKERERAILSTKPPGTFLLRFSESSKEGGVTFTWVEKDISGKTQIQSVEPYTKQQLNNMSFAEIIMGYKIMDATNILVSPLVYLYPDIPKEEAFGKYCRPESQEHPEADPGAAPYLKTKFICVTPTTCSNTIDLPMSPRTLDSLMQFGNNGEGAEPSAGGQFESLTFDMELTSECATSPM

The target in assay [2] is T2, HA-Emerin deletion mutant D4 (human) (UniProt P50402).
T2 sequence: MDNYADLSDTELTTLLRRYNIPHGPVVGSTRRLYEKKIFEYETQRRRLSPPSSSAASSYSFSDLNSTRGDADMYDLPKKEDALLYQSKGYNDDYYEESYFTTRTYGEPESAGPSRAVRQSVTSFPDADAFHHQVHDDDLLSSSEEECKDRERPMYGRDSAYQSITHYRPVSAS
The assay is described as above.

Assay [3] concerns the target T3, HA-Emerin deletion mutant D1 (human) (UniProt P50402).
T3 sequence: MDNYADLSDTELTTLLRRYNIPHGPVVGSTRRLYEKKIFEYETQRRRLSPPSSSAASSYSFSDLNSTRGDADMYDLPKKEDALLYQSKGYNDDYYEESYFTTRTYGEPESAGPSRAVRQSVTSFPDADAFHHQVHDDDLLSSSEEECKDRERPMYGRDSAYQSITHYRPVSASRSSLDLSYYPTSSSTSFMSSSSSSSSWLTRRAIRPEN
Described as above.

Assay [4] has as its target T4, Emerin (human (endogenous in HeLa)) (UniProt P50402).
T4 sequence: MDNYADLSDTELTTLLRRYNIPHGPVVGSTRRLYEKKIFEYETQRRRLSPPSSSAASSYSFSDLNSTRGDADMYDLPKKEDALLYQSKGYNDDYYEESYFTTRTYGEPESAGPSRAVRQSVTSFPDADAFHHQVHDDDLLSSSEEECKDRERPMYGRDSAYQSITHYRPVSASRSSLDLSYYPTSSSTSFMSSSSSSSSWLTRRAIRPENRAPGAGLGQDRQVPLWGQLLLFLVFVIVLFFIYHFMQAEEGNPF
Nature of the assay: co-IP; endogenous proteins; confluent HeLa cells with or without IL-6 (40 ng/mL), lysed (RIPA buffer), immunoprecipitated with antibodies against emerin, blotted for STAT3 or p-STAT3.

Results are given in words; binding and its absence hold for the method and conditions named. Binding seen in cells or lysates may run through a third protein. Some entries that bind do so weakly or less than the wild type. For some assays here: Where a sequence is shown, tags or fusion partners need not be part of it.

With “Flag-STAT3 (from UniProt P40763-2 1-769)”, the binding result in assay [1] was “binds weakly”; in assay [2], “binds”; in assay [3] it was “binds”.

For the substance “Signal transducer and activators of transcription 3 (STAT3) (from UniProt P40763 1-770)”, the binding entry in assay [4] was “binds”.

For the substance “phosphorylated STAT3 (from UniProt P40763 1-770)”, the binding result in assay [4] is “binds”.

(Values after article PMC8269395.)
